From PubChem BioAssay AID504834 (National Center for Advancing Translational Sciences (NCATS), 2011)
“And” between values parts separate entries of the source, which are not always exact repeats. Identical values can stand only once. In all, about 320,000 compounds went through this assay and about 22,000 (6.9%) were called active. This list was built around the results that the source calls inconclusive (neither active nor inactive); the mix of calls is not that of the screen. Calls follow the shape of the dose curve; as a rule, active = well fitted inhibition curve with a large enough effect; inconclusive = small, poorly fitted or top-dose-only effect, or another doubt; inactive = no such curve, though single readings can be large or run the other way. Potencies of inconclusive entries are doubtful fits and often do not repeat.

Test: Primary qHTS for delayed death inhibitors of the malarial parasite plastid, 96 hour incubation
Conditions: P. falciparum luciferase reporter growth; series mostly up to 28.7 µM
In short: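 Two-generation exposure (96 h) targets delayed-death phenotype. Reporter parasites carrying integrated firefly luciferase, in red cells at 2% hematocrit and 0.05% parasitemia final, kept at 37 C, 5% CO2; luminescence loss indicates inhibition.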
Potency is read from the fitted curve at half-maximal effect.

SMILES	Potency
O=C(COc1ccccc1Cl)NC(=S)Nc1ccccc1N1CCCC1	inactive
CC(=O)c1cccc(NC(=O)C2CCCN(S(=O)(=O)c3cccc4nonc34)C2)c1 (stereo not given)	inactive
CCc1ccccc1NC(=O)Nc1ccc2c(c1)OCO2	inactive
CNC(=S)N/N=C/c1ccc2c(c1)OCCO2	inactive
CCCS(=O)(=O)c1nc(S(=O)(=O)c2ccc(C)cc2)c(NCCCN(C)C)s1	inconclusive: 16.5 µM [inhibitor, single point]
COc1cccc(CNC(=O)CCS(=O)(=O)c2cc3c(cc2C)NC(=O)CO3)c1	inactive
CC(=O)C1=C(C)Nc2ncnn2C1c1cccc(O)c1 (stereo not given)	inconclusive: 13.1 µM [inhibitor, single point]
O=C1N(c2ccc(Cl)cc2)C(c2ccc(Cl)cc2)N2CCCN12 (stereo not given)	inconclusive: 14.7 µM [inhibitor, partial curve, poor fit]
Cc1ccc(S(=O)(=O)NCc2cccnc2)cc1C(=O)N1CCCC1	inconclusive: 18.5 µM [inhibitor, partial curve, poor fit]
NC(=O)CC(NC(=O)c1ccc(Br)cc1)c1ccc(NCc2ccc(F)c(F)c2)c([N+](=O)[O-])c1 (stereo not given)	inconclusive: 13.1 µM [inhibitor, partial curve, poor fit]
COc1ccc(NC(=O)N2CCN(CCC#N)CC2)cc1	inactive
CCN(CC)CCOC(=O)C12CC3CC(CC(C3)C1)C2	inactive
CCc1ccccc1S(=O)(=O)Cc1ccc(C(=O)NCc2cccs2)o1	inconclusive: 13.1 µM [inhibitor, partial curve, poor fit]
O=C(CCCCCNC(=O)N1CCn2c1nc1ccccc12)NCc1ccc(F)cc1	inconclusive: 11.7 µM [inhibitor, single point]
CCOC(=O)C(=Cc1ccc(OCc2ccc([N+](=O)[O-])cc2)c(OC)c1)C(=O)OCC	inconclusive: 18.5 µM [inhibitor, single point]
O=C(Nc1cc2c3c(c1)CC(=O)N3CCC2)c1ccc(Br)o1	inconclusive: 14.7 µM [inhibitor, single point]
Cc1nc(-c2cc(C#N)c(Sc3cccc(C(F)(F)F)c3)nc2C)cs1	inconclusive: 11.7 µM [inhibitor, partial curve, poor fit]
COc1ccc(N2CCN(CCOc3ccc4c(C)cc(=O)oc4c3)CC2)cc1	inconclusive: 10.4 µM [inhibitor, single point]
COc1ccccc1CNc1ccc([N+](=O)[O-])cc1C	inactive
CCCCC(=O)N=c1sc2c(OC)ccc(OC)c2n1C	inactive
Cc1ccc2c(c1)C1CN(C)CCC1N2C(=O)c1cccc(S(=O)(=O)N(C)C)c1 (stereo not given)	inactive
CCOCCCN(CCC#N)C(=O)C1CCN(S(=O)(=O)c2ccc(-n3cnnn3)cc2)CC1	inactive

SMILES	Potency
CCc1ccc2[nH]c(=O)c(CN(Cc3nnnn3C3CCCC3)C3CCCCC3)cc2c1	inactive
O=S(=O)(/C(=C/c1ccc(C(F)(F)F)cc1)c1nc2ccccc2[nH]1)c1ccccc1	active: 1.65 µM
Cc1nn(-c2ccc(N3CCCCC3)nn2)c(C)c1CCC(=O)Nc1ccc(F)cc1	inconclusive: 0.522 µM [inhibitor, full curve]
COc1ccc(Br)cc1CNC(=O)Nc1cccs1	inconclusive: 5.86 µM [inhibitor, partial curve, poor fit]
S=C(NCCCc1ccccc1)Nc1ccc(Br)cc1	inactive
CN(c1ccccc1)c1nc(N)c([N+](=O)[O-])c(Nc2cccc(F)c2)n1	inconclusive: 18.5 µM [inhibitor, single point]
Cn1cnc2cc(NCc3ccc(Cl)cc3)ccc21	inconclusive: 18.5 µM [inhibitor, single point]
CSc1ncc(CN2CCC(C(=O)Nc3cccc(-c4cscn4)c3)CC2)cn1	inconclusive: 10.4 µM [inhibitor, single point]
CCOC(=O)C1CCN(c2c(C(=O)c3ccccc3)cnc3ccc(CC)cc23)CC1	inconclusive: 7.38 µM [inhibitor, partial curve, poor fit]
O=C(NC(=S)N1CCCc2ccccc21)c1ccccc1	inconclusive: 18.5 µM [inhibitor, single point]
COc1ccc(-c2sc3cc(OC)c(OC)cc3c2C#CCCO)cc1	inconclusive: 5.86 µM [inhibitor, single point]
COc1ccccc1CNC(=O)C(=O)Nc1ccc(C(=O)N2CCC(C)CC2)cc1	inconclusive: 9.28 µM [inhibitor, single point]
CC(=O)N1CCCN(C(=O)c2ccc3nc(Cc4cccc(Cl)c4)oc3c2)CC1	inconclusive: 20.8 µM [inhibitor, partial curve, poor fit]
COc1ccc(Cl)cc1C(=O)NCCN1CCOCC1	inconclusive: 16.5 µM [inhibitor, single point]
O=C(O)CCC/C=C\C[C@@H]1[C@@H](/C=C/[C@@H](O)COc2cccc(Cl)c2)[C@H](O)C[C@@H]1O	inactive and inconclusive: 18.5 µM [inhibitor, single point]
CCC(C)n1cnc2c(c1=O)c1nc3ccccc3nc1n2-c1ccc2c(c1)OCCO2 (stereo not given)	active: 13.1 µM
CC1(C)Cc2c(c(N3CCOCC3)nc3sc4c(=O)[nH]cnc4c23)CS1	inactive
COC(=O)[C@@H](NC(=O)CCc1nnc(-c2ccsc2)o1)C(C)C	inactive
CC(=O)N1CCN(C(=S)c2ccc(-c3ccc(Cl)cc3)o2)CC1	inactive
CSc1cccc(NC(=O)CN(c2ccc(C)cc2C)S(C)(=O)=O)c1	inconclusive: 0.415 µM [inhibitor, full curve, poor fit]
O=C(NC1CCCCC1)C(c1ccco1)N(C(=O)C(F)(F)F)C1CC1 (stereo not given)	inconclusive: 18.5 µM [inhibitor, single point]
COCCNS(=O)(=O)c1cc(OC)ccc1OC	inactive
